Out of some 360,000 compounds screened, about 7,500 (2.1%) were called active. Inconclusive means that the source gave no clear call. Such entries were picked first, then a sample of the others. Calls come from the whole dose curve; as a rule, active = well fitted inhibition curve with a large enough effect; inconclusive = small, poorly fitted or top-dose-only effect, or effect the other way; inactive = flat fitted curve, though single readings scatter. Potencies of inconclusive entries are doubtful fits and often do not repeat.
experiment: Nrf2 qHTS screen for inhibitors; details: A549 ARE-Fluc reporter, luciferase luminescence, 18-24 h; activity change, negative = inhibition: at 46 µM (top of the series); note: nearly all actives have a fitted effect of over 60% in size
Procedure, shortened: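 In this cell-based qHTS, ARE-driven firefly luciferase in A549 cells reports Nrf2 activity; the luminescent signal after BugLite lysis is the measured value, with a prior CellTiter-Fluor read for cell health.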
% is set by controls: 0 for no effect and ±100 for the full control effect; potency is the fitted concentration of half-maximal effect.

| SMILES | Potency | activity change, negative = inhibition |
| --- | --- | --- |
| O=C(NCC(=O)N1CC=C(c2ccccc2)CC1)c1ccc(OC(F)F)cc1 | inconclusive: 18.4 µM [falling, partial curve, poor fit] |  |
| Cc1cccc(N2C(=O)C(Oc3ccc(Cl)cc3Cl)C2C=O)c1C (centres undefined) | inconclusive: 29.1 µM [falling, single point] |  |
| CCc1c(O)nc(SCC(=O)Nc2ccccc2OC)n(-c2ccccc2C)c1=O | inconclusive: 29.1 µM [activator, single point] |  |
| CC1=C(C(=O)c2ccccc2)C(c2cccc([N+](=O)[O-])c2)NC(=S)N1 (centres undefined) | inconclusive: 0.13 µM [falling, full curve, poor fit] |  |
| CCC(C(=O)NC(C)CCc1ccccc1)n1nc(C)n2c(cc3occc32)c1=O (centres undefined) | inconclusive: 7.31 µM [falling, single point] |  |
| COc1ccc(OC)c(CN2CCN(C(=O)c3cc(S(=O)(=O)Nc4ccccc4OC)ccc3C)CC2)c1 | inconclusive: 2.91 µM [falling, partial curve, poor fit] |  |
| COc1cc2c(cc1OC)C1=NC(=O)CN1C(SCc1ccccc1)=N2 | inconclusive: 10.3 µM [falling, partial curve, poor fit] |  |
| COC(=O)c1ccc2c(c1)C(C)(C)C(/C=C/c1ccc(OC)c(OC)c1OC)=[N+]2C | active: 16.4 µM |  |
| O=C(Nc1cccc(S(=O)(=O)N2CCOCC2)c1)c1cc2ccccc2o1 | inconclusive: 16.4 µM [falling, single point] |  |
| CCCCCN(C(=O)CCC(=O)OCCOc1ccccc1Cl)c1c(N)n(CCCC)c(=O)[nH]c1=O | inconclusive: 29.1 µM [falling, single point] |  |
| CCN(CC)CCCNc1nc2ccccc2c2[nH]c3ccc(OC)cc3c12 | inconclusive: 8.2 µM [falling, partial curve, poor fit] |  |
| CCSc1nn2c(=O)c3ccccc3nc2s1 | inconclusive: 8.2 µM [activator, partial curve] |  |
| CN(Cc1ccno1)Cc1cn(Cc2ccccc2)nc1-c1ccc2c(c1)OCO2 |  | inactive: -21.5% |
| COc1ccc(-n2c(Cc3cccn3C)nnc2SCC(=O)Nc2cccc(NC(C)=O)c2)cc1 | inconclusive: 29.1 µM [falling, single point] |  |
| CN(C)CCCN(C(=O)CCOc1ccccc1)c1nc2ccc(F)cc2s1 | inconclusive: 16.4 µM [falling, single point] |  |
| C=CCn1c(SCC(=O)Nc2sccc2C(N)=O)nc2ccc(Cl)cc2c1=O | inconclusive: 18.4 µM [falling, single point] |  |
| Nc1cccc(S(=O)(=O)N2CCOCC2)c1 | inconclusive: 8.2 µM [activator, partial curve, poor fit] |  |
| CCCc1cc(C(=O)N2CCCC(Cc3ccccc3C)(C(=O)OCC)C2)no1 (centres undefined) | inconclusive: 20.6 µM [falling, partial curve, poor fit] |  |
| COc1ccccc1C1NC(=O)c2n[nH]c(-c3cccs3)c21 (centres undefined) | inconclusive: 29.1 µM [falling, single point] |  |
| CCc1noc(C)c1C(=O)Oc1ccc(N(C)S(=O)(=O)c2ccc(C)cc2)cc1 | inconclusive: 20.6 µM [falling, single point] |  |
| COCCOCC(=O)Nc1ccc(S(=O)(=O)Nc2cc(C)nc(C)n2)cc1 | inconclusive: 25.9 µM [activator, single point] |  |
| COc1ccc(C2CCCN2C(=O)c2cccs2)cc1 (centres undefined) | inconclusive: 23.1 µM [activator, single point] |  |

| SMILES | Potency | activity change, negative = inhibition |
| --- | --- | --- |
| O=C(NCc1ccco1)c1ccc(-c2ccc(Cl)cc2)o1 | inconclusive: 29.1 µM [falling, single point] |  |
| COc1cc(C2CC(=O)N(Cc3cccc(F)c3)c3ccccc3S2)cc(OC)c1OC (centres undefined) | inconclusive: 18.4 µM [falling, single point] |  |
| COc1ccc(OC)c(C2SCCN2S(=O)(=O)c2cccc(C(F)(F)F)c2)c1 (centres undefined) | active: 20.6 µM |  |
| COc1cc(-c2nnc3sc(Cc4ccc(Cl)cc4)nn23)cc(OC)c1OC | inconclusive: 23.1 µM [falling, partial curve, poor fit] |  |
| Clc1cccc(Cl)c1/C=N\Nc1nccs1 |  | inactive: 11.3% |
| Cc1ccc(CN2C(=O)C(O)(c3c(C)[nH]c4ccccc34)c3ccccc32)cc1 (centres undefined) | inconclusive: 29.1 µM [falling, single point] |  |
| COc1nc(N/N=C/c2cc3c(cc2Br)OCO3)nc(N2CCOCC2)n1 | active: 16.4 µM |  |
| Cc1ccc(S(=O)(=O)N2CCN(CC(=O)Nc3ccnn3C3CCCC3)CC2)cc1 | inconclusive: 6.51 µM [falling, partial curve, poor fit] |  |
| COc1nc(-c2ccccc2)ccc1-c1noc(-c2ccccc2F)n1 | inconclusive: 5.8 µM [activator, partial curve, poor fit] |  |
| Cc1cccc(NC(=O)Cn2nc(-c3ccco3)ccc2=O)c1C |  | inactive: -11.5% |
| Cc1ccc(NC(=S)N(CCCN2CCCC2)Cc2cccn2Cc2ccc(Cl)cc2)cc1C | inconclusive: 23.1 µM [falling, single point] |  |
| O=[N+]([O-])c1ccc(O)c(C2=NNC(c3ccccc3F)C2)c1 (centres undefined) |  | inactive: 5.96% |
| CC(C)(C)c1ccc(C(=O)NCC(=O)OC(C(=O)Nc2cc(C(F)(F)F)ccc2Cl)c2ccccc2)cc1 (centres undefined) | inconclusive: 32.6 µM [falling, single point] |  |
| COC(=O)c1cc2oc(C)cc2n1Cc1ccccc1Cl | inconclusive: 16.4 µM [activator, partial curve] |  |
| COCCNC(=O)/C(C#N)=C/c1c(N2CCN(c3ccc(OC)cc3)CC2)nc2c(C)cccn2c1=O | inconclusive: 29.1 µM [falling, single point] |  |
| Cc1nc2cc(-c3ccccc3)nn2c(C)c1CCC(=O)N1CCN(c2ccc(F)cc2)CC1 | active: 5.17 µM |  |
| Cc1ccc(-n2nnnc2SCc2nnc(-c3ccccc3Br)o2)c(C)c1 | inconclusive: 18.4 µM [falling, single point] |  |
| CC(NC(=O)c1cc(S(=O)(=O)N(C)C)ccc1Cl)C1CC2CCC1C2 (centres undefined) | inconclusive: 29.1 µM [falling, single point] |  |
| Brc1ccc(NC2=Nc3ccccc3CC2)cc1 | inconclusive: 2.91 µM [activator, full curve] |  |
| Cc1cc(Br)ccc1NC(=O)CNC(=O)c1cnn(C)c1 |  | inactive: 24.3% |
| Cn1c(=O)c(C(=O)CCl)c(N)n(CC2CC2)c1=O |  | inactive: 5.67% |
| Cc1ccc2cc(CCNC(=O)c3ccc4c(c3)OCO4)c(=O)[nH]c2c1C | inconclusive: 20.6 µM [falling, single point] |  |

| SMILES | Potency | activity change, negative = inhibition |
| --- | --- | --- |
| COc1ccc(C(C#N)c2ccc(Cl)nn2)cc1 (centres undefined) | inconclusive: 18.4 µM [activator, partial curve, poor fit] |  |
| Cc1ccc(C(=O)Nc2cccnc2)cc1S(=O)(=O)N1CCCCC1 | active: 20.6 µM |  |
| CCCc1ccc(S(=O)(=O)N(C)S(=O)(=O)c2ccc(F)cc2)cc1 | inconclusive: 32.6 µM [falling, single point] |  |
| CCOC(=O)c1[nH]c(C)c(C(=O)NCc2cccnc2)c1C | inconclusive: 14.6 µM [activator, partial curve, poor fit] |  |
| CNC(=O)C1CCC(Cn2c(=O)c3sccc3n(Cc3cc(C)ccc3C)c2=O)CC1 (centres undefined) | inconclusive: 13 µM [activator, partial curve] |  |
| O=C1C=C(NCC2CCCO2)CC(c2ccccc2)C1 (centres undefined) | inconclusive: 18.4 µM [falling, partial curve, poor fit] |  |
| COC(CNC(=O)c1cnn2c(C)c(Cc3ccccc3)c(C)nc12)OC | inconclusive: 32.6 µM [falling, partial curve, poor fit] |  |
| COc1ccc(-c2csc(NC(CO)c3nc4ccccc4n3CCOCCO)n2)cc1 (centres undefined) | inconclusive: 29.1 µM [activator, single point] |  |
| C=CCNC(=O)NC(=S)c1ccccc1 | inconclusive: 29.1 µM [activator, partial curve, poor fit] |  |
| O=C(Nc1ccc(F)cc1)NC1CCCCC1 | inconclusive: 23.1 µM [activator, single point] |  |
| CCN(CC)S(=O)(=O)c1ccc(Cl)c(NC(=O)COC(=O)c2c(C)noc2C)c1 | inconclusive: 0.58 µM [falling, full curve, poor fit] |  |
| CCOc1ccc(-c2cn3c(n2)sc2cc(C(=O)NCCCN4CCCCCC4)ccc23)cc1 |  | inactive: -5.51% |
| COc1ccc(Nc2nc(C(=O)NCc3ccco3)cs2)cc1 | inconclusive: 20.6 µM [falling, partial curve, poor fit] |  |
| COc1cc([N+](=O)[O-])ccc1NC(=O)CC(C)C | inconclusive: 0.0058 µM [falling, full curve, poor fit] |  |
| Cc1cccc(-c2cc(C(=O)NCc3ccccn3)c3ccccc3n2)c1 |  | inactive: 21.4% |
| CCc1ccc2oc(C(=O)NCC(c3ccc(OC)cc3)N3CCCCC3)c(C)c2c1 (centres undefined) | inactive |  |
| CCOC(=O)c1sc(-c2cccc(C(F)(F)F)c2)nc1O | inconclusive: 32.6 µM [falling, single point] |  |
| COc1cccc(NCc2cc3c(C(C)(C)C)nn(-c4ccccc4)c3[nH]c2=O)c1 | inconclusive: 25.9 µM [falling, partial curve, poor fit] |  |
| COc1ccc(CNC(=O)Cn2ccc([N+](=O)[O-])n2)cc1OC | inconclusive: 18.4 µM [falling, partial curve, poor fit] |  |
| O=C1c2ccccc2C(=O)c2cc(NC(=O)C3CC3)ccc21 | inconclusive: 4.11 µM [activator, full curve] |  |

Five structures already listed, sorted by length of the SMILES, ascending:

| SMILES | Potency | activity change, negative = inhibition |
| --- | --- | --- |
| COc1ccc(C(C#N)c2ccc(Cl)nn2)cc1 (centres undefined) | inconclusive: 18.4 µM [activator, partial curve, poor fit] |  |
| O=C1C=C(NCC2CCCO2)CC(c2ccccc2)C1 (centres undefined) | inconclusive: 18.4 µM [falling, partial curve, poor fit] |  |
| COc1cc([N+](=O)[O-])ccc1NC(=O)CC(C)C | inconclusive: 0.0058 µM [falling, full curve, poor fit] |  |
| CCOC(=O)c1sc(-c2cccc(C(F)(F)F)c2)nc1O | inconclusive: 32.6 µM [falling, single point] |  |
| CCOc1ccc(-c2cn3c(n2)sc2cc(C(=O)NCCCN4CCCCCC4)ccc23)cc1 |  | inactive: -5.51% |

Reference: PubChem BioAssay AID504444 (National Center for Advancing Translational Sciences (NCATS), 2011)
